The supplement of paper PMC4604168 (melanoma cell lines)
The list shows a part of the results. Many values rest on one well or one pass, so single values are uncertain.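 The apoptosis fraction was the count of cleaved-PARP antibody-stained nuclei relative to all DNA-stained nuclei, imaged in 1,536-well plates. Screening doses were set so most cells survived, and baseline and induced cleaved-PARP levels vary greatly across cell lines.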

Experiments:
Test in all cases: cleaved PARP positive nuclei fraction relative to DMSO control; melanoma cells; higher = more apoptosis
Details in all cases: library dose: low library concentration; 72 h
501Mel = test system: 501Mel
A101D = test system: A101D
A2058 = test system: A2058
C32 = test system: C32
CBRC008 = test system: CBRC008 (line from a melanoma biopsy)
CBRC014 = test system: CBRC014 (line from a melanoma biopsy)
CBRC016 = test system: CBRC016 (line from a melanoma biopsy)
CBRC017 = test system: CBRC017 (line from a melanoma biopsy)
A375 = test system: A375
CBRC013 = test system: CBRC013 (line from a melanoma biopsy)

| SMILES | cleaved PARP positive nuclei fraction (501Mel) | cleaved PARP positive nuclei fraction (A101D) | cleaved PARP positive nuclei fraction (A2058) | cleaved PARP positive nuclei fraction (C32) | cleaved PARP positive nuclei fraction (CBRC008) | cleaved PARP positive nuclei fraction (CBRC014) | cleaved PARP positive nuclei fraction (CBRC016) | cleaved PARP positive nuclei fraction (CBRC017) | cleaved PARP positive nuclei fraction (A375) | cleaved PARP positive nuclei fraction (CBRC013) |
| --- | --- | --- | --- | --- | --- | --- | --- | --- | --- | --- |
| NC(=O)c1ccc(N(C(N)=O)c2c(F)cccc2F)nc1-c1ccc(F)cc1F + O=C(O)C(=O)Nc1sc2c(c1C(=O)O)CCNC2 [TCS401] (first compound 0.4 µM, partner dose 1.66667 µM) | 160% | 27.9% | 51.4% | 161% | 157% | 89% | 25.9% | 160% | – | – |
| NC(=O)c1ccc(N(C(N)=O)c2c(F)cccc2F)nc1-c1ccc(F)cc1F + COc1ccc2c(c1)CCC1C2CCC2(C)C(NCCCCCCN3C(=O)C=CC3=O)CCC12 [U73122] (first compound 0.4 µM, partner dose 0.4 µM) | 80.8% | 42.3% | 88.8% | 87.2% | 150% | 94.6% | 85.3% | 106% | – | – |
| C[C@@H](N)c1ccc(C(=O)Nc2ccnc3[nH]ccc23)cc1 + c1cc(-c2cnn3cc(-c4ccc(OCCN5CCCCC5)cc4)cnc23)ccn1 [Dorsomorphin] (first compound 0.4 µM, partner dose 0.4 µM) | 74.4% | 12.2% | 131% | 83.8% | 164% | 89.9% | 66.9% | 86.3% | – | – |
| Cn1cnc2c(F)c(Nc3ccc(Br)cc3Cl)c(C(=O)NOCCO)cc21 [selumetinib] + OCCn1cc(-c2cnc3nnn(Cc4ccc5ncccc5c4)c3n2)cn1 [PF04217903] (first compound 0.015 µM, partner dose 1 µM) | – | 85.4% | 141% | 104% | 42.5% | 77.6% | 38.3% | 100% | 270% | 126% |
| C[C@]1(O)C[C@@H](c2nc(-c3ccc4ccc(-c5ccccc5)nc4c3)c3c(N)nccn32)C1 + C[C@@H]1CCN(C(=O)CC#N)C[C@@H]1N(C)c1ncnc2[nH]ccc12 [CP690550] (first compound 0.4 µM, partner dose 1 µM) | – | 41.9% | 48.1% | 98.3% | 67.2% | 86.2% | 54% | 117% | 106% | 144% |
| CCCCCCCCc1ccc(CCC(N)(CO)CO)cc1 [fingolimod] + CN(c1ncccc1CNc1nc(Nc2ccc3c(c2)CC(=O)N3)ncc1C(F)(F)F)S(C)(=O)=O [PF562271] (first compound 2 µM, partner dose 0.08 µM) | – | 94.6% | 165% | 176% | 23.7% | 134% | 17.6% | 113% | 802% | – |
| Cn1sc(=O)n(Cc2ccccc2)c1=O + COC(=O)c1sccc1S(=O)(=O)Nc1ccc(Nc2ccccc2)cc1OC [GSK0660] (first compound 0.4 µM, partner dose 1 µM) | 61.3% | 11.9% | 95.1% | 78.6% | 72.4% | 146% | 2400% | 86.4% | – | – |
| Cn1sc(=O)n(Cc2ccccc2)c1=O + C=CCNC1=C2C[C@@H](C)C[C@H](OC)[C@H](O)[C@@H](C)/C=C(\C)[C@H](OC(N)=O)[C@@H](OC)/C=C\C=C(/C)C(=O)NC(=CC1=O)C2=O [Tanespimycin] (first compound 0.4 µM, partner dose 0.002 µM) | – | 98.9% | 57.1% | 85.4% | 167% | 81.1% | 61.5% | 84.1% | 59.6% | – |
| Cn1sc(=O)n(Cc2ccccc2)c1=O + O=C(O)C(=O)Nc1sc2c(c1C(=O)O)CCNC2 [TCS401] (first compound 0.4 µM, partner dose 1.66667 µM) | 78.3% | 8.51% | 73.6% | 71.2% | 156% | 114% | 63.7% | 84.7% | – | – |
| CC1(C)CCC(c2ccc(Cl)cc2)=C(CN2CCN(c3ccc(C(=O)NS(=O)(=O)c4ccc(N[C@H](CCN5CCOCC5)CSc5ccccc5)c(S(=O)(=O)C(F)(F)F)c4)cc3)CC2)C1 + Cn1nnc2c(C(N)=O)ncn2c1=O [temozolomide] (first compound 0.4 µM, partner dose 2 µM) | – | 134% | 208% | 130% | 766% | 1010% | 766% | 403% | 202% | – |
| CCCCCCCCc1ccc(CCC(N)(CO)CO)cc1 [fingolimod] + Cc1ccc(NC(=O)c2cccc(N(C)C)c2)cc1NC(=O)c1ccc(O)cc1 [ZM336372] (first compound 2 µM, partner dose 2 µM) | – | 268% | 136% | 151% | 87.7% | 106% | 156% | 143% | 44% | 77.5% |

Some of the entries so far, with bars between the fields:
SMILES | cleaved PARP positive nuclei fraction (501Mel) | cleaved PARP positive nuclei fraction (A101D) | cleaved PARP positive nuclei fraction (A2058) | cleaved PARP positive nuclei fraction (C32) | cleaved PARP positive nuclei fraction (CBRC008) | cleaved PARP positive nuclei fraction (CBRC014) | cleaved PARP positive nuclei fraction (CBRC016) | cleaved PARP positive nuclei fraction (CBRC017) | cleaved PARP positive nuclei fraction (A375) | cleaved PARP positive nuclei fraction (CBRC013)
NC(=O)c1ccc(N(C(N)=O)c2c(F)cccc2F)nc1-c1ccc(F)cc1F + O=C(O)C(=O)Nc1sc2c(c1C(=O)O)CCNC2 [TCS401] (first compound 0.4 µM, partner dose 1.66667 µM) | 160% | 27.9% | 51.4% | 161% | 157% | 89% | 25.9% | 160% | – | –
NC(=O)c1ccc(N(C(N)=O)c2c(F)cccc2F)nc1-c1ccc(F)cc1F + COc1ccc2c(c1)CCC1C2CCC2(C)C(NCCCCCCN3C(=O)C=CC3=O)CCC12 [U73122] (first compound 0.4 µM, partner dose 0.4 µM) | 80.8% | 42.3% | 88.8% | 87.2% | 150% | 94.6% | 85.3% | 106% | – | –
